# Laboratory results as given in patent publication US20100267802.
# Sequences of proteins named here, by UniProt entry; tags and fusion partners are left off. A change or cut given only in a name is not applied to a line headed by its entry. Residues count along the entry.
# UniProt Q9UPY3: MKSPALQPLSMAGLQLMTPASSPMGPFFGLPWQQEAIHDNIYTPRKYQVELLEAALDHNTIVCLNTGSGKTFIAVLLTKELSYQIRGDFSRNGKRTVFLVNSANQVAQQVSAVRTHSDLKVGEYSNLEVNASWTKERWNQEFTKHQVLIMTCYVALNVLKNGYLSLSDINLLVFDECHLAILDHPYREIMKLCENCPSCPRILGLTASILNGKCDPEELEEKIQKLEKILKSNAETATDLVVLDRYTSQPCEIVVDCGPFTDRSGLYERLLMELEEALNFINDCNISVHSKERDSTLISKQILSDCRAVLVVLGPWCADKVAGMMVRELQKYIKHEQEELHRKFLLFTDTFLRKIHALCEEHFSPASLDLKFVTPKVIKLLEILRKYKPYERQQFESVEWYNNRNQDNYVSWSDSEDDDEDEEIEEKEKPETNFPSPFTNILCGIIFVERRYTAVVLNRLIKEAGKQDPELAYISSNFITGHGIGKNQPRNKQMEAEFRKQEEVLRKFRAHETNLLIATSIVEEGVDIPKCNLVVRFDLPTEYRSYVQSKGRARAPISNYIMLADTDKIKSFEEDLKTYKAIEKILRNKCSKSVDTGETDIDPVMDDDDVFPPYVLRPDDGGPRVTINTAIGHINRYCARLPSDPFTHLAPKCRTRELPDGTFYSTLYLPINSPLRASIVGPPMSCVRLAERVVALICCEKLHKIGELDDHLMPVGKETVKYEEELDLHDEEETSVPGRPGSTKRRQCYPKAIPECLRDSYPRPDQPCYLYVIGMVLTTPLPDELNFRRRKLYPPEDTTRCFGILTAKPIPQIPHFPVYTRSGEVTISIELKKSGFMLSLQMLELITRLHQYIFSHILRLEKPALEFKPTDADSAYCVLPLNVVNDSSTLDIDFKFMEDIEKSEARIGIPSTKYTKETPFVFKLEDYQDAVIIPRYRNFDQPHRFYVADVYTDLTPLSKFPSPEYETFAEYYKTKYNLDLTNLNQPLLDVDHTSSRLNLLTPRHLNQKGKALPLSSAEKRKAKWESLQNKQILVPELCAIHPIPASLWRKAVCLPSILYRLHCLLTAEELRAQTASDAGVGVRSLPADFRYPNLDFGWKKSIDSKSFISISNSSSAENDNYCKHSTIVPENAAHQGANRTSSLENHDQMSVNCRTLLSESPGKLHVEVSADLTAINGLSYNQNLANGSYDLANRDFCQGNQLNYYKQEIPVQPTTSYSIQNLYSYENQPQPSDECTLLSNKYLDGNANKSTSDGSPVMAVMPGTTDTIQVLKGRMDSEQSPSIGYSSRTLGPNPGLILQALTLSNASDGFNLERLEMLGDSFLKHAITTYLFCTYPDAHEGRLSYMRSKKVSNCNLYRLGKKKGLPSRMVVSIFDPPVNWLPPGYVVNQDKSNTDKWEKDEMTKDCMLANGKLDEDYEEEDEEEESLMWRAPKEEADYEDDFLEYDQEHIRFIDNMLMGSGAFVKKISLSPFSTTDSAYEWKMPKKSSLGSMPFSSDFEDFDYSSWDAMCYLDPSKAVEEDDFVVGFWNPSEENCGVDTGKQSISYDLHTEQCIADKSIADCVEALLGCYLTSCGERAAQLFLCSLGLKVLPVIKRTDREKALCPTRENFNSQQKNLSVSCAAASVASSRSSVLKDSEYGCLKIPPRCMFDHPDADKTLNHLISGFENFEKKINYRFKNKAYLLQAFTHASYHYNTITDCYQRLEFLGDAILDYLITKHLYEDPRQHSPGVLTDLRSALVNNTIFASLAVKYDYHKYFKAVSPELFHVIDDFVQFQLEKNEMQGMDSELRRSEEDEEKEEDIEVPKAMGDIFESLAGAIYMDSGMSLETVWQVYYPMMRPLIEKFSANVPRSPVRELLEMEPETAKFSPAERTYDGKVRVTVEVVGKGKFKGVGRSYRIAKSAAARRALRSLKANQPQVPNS
# UniProt Q04609: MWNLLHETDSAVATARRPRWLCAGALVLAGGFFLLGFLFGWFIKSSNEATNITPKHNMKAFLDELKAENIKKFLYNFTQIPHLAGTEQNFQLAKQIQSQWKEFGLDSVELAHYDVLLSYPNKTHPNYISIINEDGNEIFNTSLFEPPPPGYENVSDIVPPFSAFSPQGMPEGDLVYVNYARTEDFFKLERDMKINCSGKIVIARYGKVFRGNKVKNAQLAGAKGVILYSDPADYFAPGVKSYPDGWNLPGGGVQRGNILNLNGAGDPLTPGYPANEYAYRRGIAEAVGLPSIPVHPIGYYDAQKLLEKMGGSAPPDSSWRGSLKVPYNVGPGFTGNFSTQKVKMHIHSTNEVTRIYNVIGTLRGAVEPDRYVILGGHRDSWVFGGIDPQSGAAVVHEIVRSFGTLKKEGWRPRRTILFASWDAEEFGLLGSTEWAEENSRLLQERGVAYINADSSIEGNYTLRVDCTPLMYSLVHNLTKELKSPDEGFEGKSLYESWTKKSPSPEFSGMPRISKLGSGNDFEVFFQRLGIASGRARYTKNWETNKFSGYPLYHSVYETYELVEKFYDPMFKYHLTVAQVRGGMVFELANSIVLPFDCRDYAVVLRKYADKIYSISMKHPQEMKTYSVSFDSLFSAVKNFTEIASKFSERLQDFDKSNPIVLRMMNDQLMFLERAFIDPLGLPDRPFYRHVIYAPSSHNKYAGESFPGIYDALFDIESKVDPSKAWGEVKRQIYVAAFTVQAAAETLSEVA
# UniProt P19338, 2-710: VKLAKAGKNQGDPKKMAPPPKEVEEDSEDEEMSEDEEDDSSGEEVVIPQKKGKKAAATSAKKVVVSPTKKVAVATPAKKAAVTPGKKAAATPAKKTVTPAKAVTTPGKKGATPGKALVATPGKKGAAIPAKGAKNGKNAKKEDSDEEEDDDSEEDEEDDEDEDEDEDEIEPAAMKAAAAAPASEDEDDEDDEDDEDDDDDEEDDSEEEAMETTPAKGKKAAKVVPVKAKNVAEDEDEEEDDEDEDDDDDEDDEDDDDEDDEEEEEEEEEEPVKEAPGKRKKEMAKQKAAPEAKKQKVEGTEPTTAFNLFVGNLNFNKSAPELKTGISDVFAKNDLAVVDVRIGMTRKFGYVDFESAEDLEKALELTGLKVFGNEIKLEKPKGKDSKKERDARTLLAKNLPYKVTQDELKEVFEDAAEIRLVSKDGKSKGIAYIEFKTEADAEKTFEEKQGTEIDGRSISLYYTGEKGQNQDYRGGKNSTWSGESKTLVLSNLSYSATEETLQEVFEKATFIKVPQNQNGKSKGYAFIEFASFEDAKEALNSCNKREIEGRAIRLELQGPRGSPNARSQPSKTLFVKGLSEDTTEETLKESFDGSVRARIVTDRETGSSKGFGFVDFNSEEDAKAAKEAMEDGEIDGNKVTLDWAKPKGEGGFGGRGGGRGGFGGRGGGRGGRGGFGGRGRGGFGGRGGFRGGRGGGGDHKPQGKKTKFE
# UniProt P10721, 26-976: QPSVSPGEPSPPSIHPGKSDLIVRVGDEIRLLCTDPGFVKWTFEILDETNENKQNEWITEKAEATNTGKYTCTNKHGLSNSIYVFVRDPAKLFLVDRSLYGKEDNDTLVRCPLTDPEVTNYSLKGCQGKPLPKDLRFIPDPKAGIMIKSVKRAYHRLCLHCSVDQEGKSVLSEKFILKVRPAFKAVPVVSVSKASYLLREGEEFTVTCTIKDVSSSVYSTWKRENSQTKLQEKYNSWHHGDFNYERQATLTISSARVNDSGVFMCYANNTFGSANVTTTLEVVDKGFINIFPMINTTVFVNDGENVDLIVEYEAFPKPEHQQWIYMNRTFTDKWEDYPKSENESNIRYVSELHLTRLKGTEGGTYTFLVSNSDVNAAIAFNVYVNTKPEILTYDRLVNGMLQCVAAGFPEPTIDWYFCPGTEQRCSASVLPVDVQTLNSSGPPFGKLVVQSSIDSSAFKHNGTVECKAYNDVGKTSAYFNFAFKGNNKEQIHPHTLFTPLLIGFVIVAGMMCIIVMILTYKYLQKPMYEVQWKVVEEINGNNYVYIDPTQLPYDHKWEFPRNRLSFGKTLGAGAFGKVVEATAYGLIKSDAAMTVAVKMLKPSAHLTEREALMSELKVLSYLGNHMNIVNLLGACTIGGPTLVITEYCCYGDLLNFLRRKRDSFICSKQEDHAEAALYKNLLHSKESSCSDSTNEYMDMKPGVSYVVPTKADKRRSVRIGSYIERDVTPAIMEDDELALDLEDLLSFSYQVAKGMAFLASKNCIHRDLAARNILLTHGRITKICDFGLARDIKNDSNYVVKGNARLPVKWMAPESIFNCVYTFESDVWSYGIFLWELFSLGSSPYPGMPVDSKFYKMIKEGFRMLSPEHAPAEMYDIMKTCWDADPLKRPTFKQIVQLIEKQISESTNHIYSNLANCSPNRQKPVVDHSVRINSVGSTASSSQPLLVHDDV
# For some of these results: No signal at the amounts used counts as a negative. For some of these results: Where cells or extracts were used, other partners may take part.
# Assays:
# [1] = molecular target: Dicer (UniProt Q9UPY3); experiment: enzyme reaction in vitro; details: purified recombinant protein, protein details: recombinant dicer enzyme kit
# [2] = molecular target: PSMA (prostate-specific membrane antigen) (Homo sapiens) (UniProt Q04609); experiment: flow cytometry; details: protein on the cell surface, protein details: endogenous on LNCaP cells
# [3] = molecular target: Nucleolin (Homo sapiens) (UniProt P19338); experiment: binding assay; details: fluorescence microscopy, HeLa uptake to nuclei, 400 nM, 37 C, 1 h; protein on the cell surface; protein details: endogenous on HeLa cells; label: FITC; variant of AS1411 aptamer
# [4] = molecular target: Nucleolin (Homo sapiens) (UniProt P19338); experiment: flow cytometry; details: HeLa cells, 1 uM overnight, DMEM 10% FBS; internalized signal after Mg-free wash; protein on the cell surface; protein details: endogenous on HeLa cells; label: Alexa 488; folded or branched DNA
# [5] = molecular target: c-Kit (stem cell factor receptor) (Homo sapiens) (UniProt P10721); experiment: activity in cells; details: dTdT 3' end on antisense; Plk1 knockdown in DLD-1; none in c-Kit-lacking K562; protein on the cell surface; protein details: endogenous on DLD-1 cells; dose not given here
# [6] = 2'-F pyrimidines in aptamer sense strand, dTdT 3' end on antisense, digested to 21-23 nt fragments retaining antisense strand, label: FAM-G, variant of A10 aptamer
sequence,measurement,setting,value
GGGAGGACGAUGCGGAUCAGCCAUGUUUACGUCACUCCUUGUCAAUCCUCAUCGGCAGACGACUCGCCCGAAAUUCUCCGAACGUGUCACGU / ACGUGACACGUUCGGAGAATT [A10-CON chimera],activity on this sequence,[1]; [6],active
same,binding result,"[2]; 2'-F pyrimidines in aptamer sense strand, dTdT 3' end on antisense, affinity comparable to A10, none on PC-3, competed by unlabeled A10 and anti-PSMA antibody, label: FAM-G, variant of A10 aptamer",binds
TGGTGGTGGTGGTTGTGGTGGTGGTGGAAGGGCGGCUUUGCCAAGUGC / AAGCACUUGGCAAAGCCGCCCUU [AS1411-Plk1 chimera],binding result,[3],binds
GGGAGGACGAUGCGGAUCAGCCAUGUUUACGUCACUCCUUGUCAAUCCUCAUCGGCAGACGACUCGCCCGAAAGGGCGGCUUUGCCAAGUGC / GCACUUGGCAAAGCCGCCCTT [A10-Plk1 chimera],activity on this sequence,[1]; [6],active
same,binding result,"[2]; 2'-F pyrimidines in aptamer sense strand, dTdT 3' end on antisense, affinity comparable to A10, none on PC-3, competed by unlabeled A10 and anti-PSMA antibody, uptake reduced by DHT, label: FAM-G, variant of A10 aptamer",binds
TGGTGGTGGTGGTTGTGGTGGTGGTGG [AS1411 aptamer],binding result,[4],binds
GGGAGGACGAUGCGGAUCAGCCAUGUUUACGUCACUCCUUGUCAAUCCUCAUCGGCAGACGACUCGCCCGAAAUUCUCCGAACGUGUCACGU [ssA10-CON (sense strand without antisense)],activity on this sequence,"[1]; 2'-F pyrimidines, not digested, variant of A10-CON chimera",not active
GGGAGGACGAUGCGGAUCAGCCAUGUUUACGUCACUCCUUGUCAAUCCUCAUCGGCAGACGACUCGCCCGA [A10 aptamer],activity on this sequence,"[1]; 2'-F pyrimidines, not digested, label: FAM-G",not active
same,binding result,"[2]; 2'-F pyrimidines, LNCaP binding, none on PSMA-negative PC-3, competed by unlabeled A10 and anti-PSMA antibody, 2 mM CaCl2, 37 C, label: FAM-G",binds
GGGAGGACGAUGCGGAUCAGCCAUGUUUACGUCACUCCUUGUCAAUCCUCAUCGGCAGACGACUCGCCCGAAAGGGCGGCUUUGCCAAGUGC [ssA10-Plk1 (sense strand without antisense)],activity on this sequence,"[1]; 2'-F pyrimidines, not digested, variant of A10-Plk1 chimera",not active
GGGAGGACGAUGCGGAUCAGCCAUCCUUACGUCACUCCUUGUCAAUCCUCAUCGGCAGACGACUCGCCCGAAAGGGCGGCUUUGCCAAGUGC / GCACUUGGCAAAGCCGCCCTT [mutA10-Plk1 chimera],binding result,"[2]; 2'-F pyrimidines in aptamer sense strand, dTdT 3' end on antisense, no binding to LNCaP with or without DHT, up to 10 uM, label: FAM-G, variant of A10-Plk1 chimera",no binding
GGGAGAGAGGAAGAGGGATGGGCTCTACGTCGATCGAATTTCGGATGCATCCCAAATACCAGCATAACCCAGAGGTCGATAGTACTGGATCCCAAGGGCGGCUUUGCCAAGUGC / GCACUUGGCAAAGCCGCCCTT [9.38-Plk1 chimera],functional effect of the aptamer,[5],active
GGGAGGACGAUGCGGAUCAGCCAUGUUUACGUCACUCCUUGUCAAUCCUCAUCGGCAGACGACUCGCCCGAAAGUGAAGUCAACAUGCCUGC / GCAGGCAUGUUGACUUCACUU [A10-Bcl2 chimera],binding result,"[2]; 2'-F pyrimidines in aptamer sense strand, binding/uptake in LNCaP, none in PC-3, label: FITC, variant of A10 aptamer",binds
